# The other results are listed elsewhere or left out.
# Assay: agonists of NTR1, primary screen, imaging, U2OS cells, beta-arrestin-GFP, high content (AID 493036) (AID 493036)
# Conditions: NTR1-U2OS beta-arrestin-GFP spot imaging, agonist mode; measured here: cell count, cytotoxicity flag; at 20 µM
row,Structure (SMILES),cell count [cells]
1,CCC(CO)(C(=O)OC1CN2CCC1CC2)c1ccccc1 (configuration not stated),48
2,COc1cc(OC)cc(C(=O)NCC2(N3CCOCC3)CCCCC2)c1,45
3,COc1cccc(C(=O)N(c2cc(C)cc(C)c2)C2CCN(C(=O)OC(C)(C)C)CC2)c1,95
4,CCCOc1ccc(C)cc1CN(CCCl)CCCl,52
5,CN1CCC(Nc2ccc(Cl)cc2)CC1,73
6,CN1CCC(Nc2ccc(F)c(Cl)c2)CC1,69
7,CCOc1ncccc1C(=O)NCC1(N2CCOCC2)CCCCC1,81
8,CCCOc1ccc(C(=O)NCC2(N(C)C)CCCCC2)cc1,49
9,O=C(O)C1(Nc2ccccc2)CCN(Cc2ccccc2)CC1,101
10,CC(C)(C)OC(=O)N1CCC(Nc2ccccc2)CC1,29
11,CCN1CCC(Nc2cccc(F)c2)CC1,45
12,CN(C)c1ccc(C(=O)NCC2(N3CCCCC3)CCCCC2)cc1,65
13,O=C(NCC1(N2CCCCC2)CCCCC1)c1ccco1,56
14,COc1cc(OC)cc(C(=O)NCC2(N3CCCCC3)CCCCC2)c1,52
15,Fc1ccccc1NC1CCN(Cc2ccccc2)CC1,50
16,Cc1ccc(C(=O)NCC2(N3CCCCC3)CCCCC2)o1,83
17,CCCN1CCC(Nc2cc(OC)cc(OC)c2)CC1,54
18,c1ccc(CN2CCC(Nc3ccccc3)CC2)cc1,49
19,CN(C)C1(CNC(=O)c2cccc(C#N)c2)CCCCC1,111
20,CC(C)(C)OC(=O)N1CCC(N(C(=O)c2ccccc2)c2ccc(Cl)cc2)CC1,60
21,N#Cc1ccc(C(=O)NCC2(N3CCCCC3)CCCCC2)cc1,64
22,N/C(=N\O)c1c(N)no[n+]1[O-],61
23,CCOC(=O)N1CCC(Nc2ccc(C)cc2)CC1,74

row,Structure (SMILES),cell count [cells]
1,O=C(OC1CN2CCC1CC2)C1c2ccccc2C=Cc2ccccc21 (configuration not stated),44
2,CCc1cc(C(=O)NCC2(N3CCCCC3)CCCCC2)sc1C,74
3,O=C(NCC1(N2CCOCC2)CCCCC1)c1cc(Br)ccc1Cl,58
4,COc1cc(C(=O)NCC2(N3CCOCC3)CCCCC2)cc(OC)c1C,56
5,COc1ccc(C(=O)NCC2(N3CCOCC3)CCCCC2)cc1OC,41
6,O=C(NCC1(N2CCCCC2)CCCCC1)c1cncc(Br)c1,61
7,CN1CCC(Nc2cccc(F)c2)CC1,63
8,CN(C)c1cccc(C(=O)NCC2(N3CCCCC3)CCCCC2)c1,68
9,COc1ccc(CN(CCCl)CCCl)cc1Cl,45
10,CC(C)c1ccc(NC2CCN(C(=O)OC(C)(C)C)CC2)cc1,62
11,O=C(NCC1(N2CCOCC2)CCCCC1)c1cc(F)c(F)cc1Cl,41
12,COc1cc(OC)c(C(=O)NCC2(N(C)C)CCCCC2)cc1OC,95
13,O=C(NCC1(N2CCCCC2)CCCCC1)c1cccc(C(F)(F)F)c1,53
14,CN1CCN(CCOC(=O)C(O)(c2ccccc2)c2ccccc2)CC1,60
15,COc1ccc(NC2CCN(C(=O)OC(C)(C)C)CC2)cc1,45
16,CC(C)c1ccc(C(=O)NCC2(N3CCOCC3)CCCCC2)cc1,51
17,COc1cc(C(=O)NCC2(N3CCCCC3)CCCCC2)ccc1OC(F)F,46
18,O=C(NCC1(N2CCOCC2)CCCCC1)c1cc(=O)[nH]c2ccccc12,45
19,O=C(NCC1(N2CCCCC2)CCCCC1)c1ccc(OC(F)F)cc1,34
20,CSc1ccc(C(=O)NCC2(N3CCOCC3)CCCCC2)cc1,57
21,O=C(NCC1(N2CCCCC2)CCCCC1)c1cccc([N+](=O)[O-])c1,27
22,N#CC1(Nc2ccccc2)CCN(CCc2ccccc2)CC1,46
23,CCN1CCC(Nc2ccc(Cl)cc2)CC1,60

row,Structure (SMILES),cell count [cells]
1,Cc1ccc(OCC(C)C)c(CN(CCCl)CCCl)c1,40
2,CCOC(=O)N1CCC(Nc2cccc(C)c2)CC1,59
3,CCOc1ccc(C)cc1CN(CCCl)CCCl,53
4,COc1ccc(NC2CCN(CCc3ccccc3)CC2)c(OC)c1,59
5,CCOC(=O)N1CCC(Nc2ccc(F)cc2)CC1,57
6,O=C(NCC1(N2CCCCC2)CCCCC1)c1ccc(F)cc1,47
7,CCCCOc1ccc(C(=O)NCC2(N3CCOCC3)CCCCC2)cc1,74
8,O=C(NCC1(N2CCOCC2)CCCCC1)c1cc2ccccc2o1,38
9,Cc1cc(C)cc(N(C(=O)c2ccccc2)C2CCN(C(=O)OC(C)(C)C)CC2)c1,73
10,O=C(NCC1(N2CCCCC2)CCCCC1)c1ccc(Cl)nc1,52
11,CCOC(=O)N1CCC(Nc2ccc(OC)cc2)CC1,79
12,COc1ccc(Cl)cc1C(=O)NCC1(N2CCOCC2)CCCCC1,52
13,O=C(OC1CN2CCC1CC2)C1c2ccccc2Oc2ccccc21 (configuration not stated),64
14,N#CC1(Nc2ccccc2)CCN(Cc2ccccc2)CC1,50
15,O=C(NCC1(N2CCCCC2)CCCCC1)c1ccc(Cl)s1,44
16,O=C(NCC1(N2CCCCC2)CCCCC1)c1cccs1,53
17,O=C(NCC1(N2CCCCC2)CCCCC1)c1ccc(=O)[nH]c1,56
18,COc1ccc(C(=O)NCC2(N3CCCCC3)CCCCC2)c(OC)c1OC,49
19,CC(C)(C)OC(=O)N1CCC(N(C(=O)c2ccccc2)c2ccc(F)cc2)CC1,82
20,COc1ccc(C(=O)NCC2(N3CCCCC3)CCCCC2)cc1,50
21,CSc1ccccc1C(=O)NCC1(N2CCCCC2)CCCCC1,57
